The results in this text go back to publication PMC7947244.

The chains behind the UniProt entries cited, without tags or fusion partners.
UniProt Q9QUR7: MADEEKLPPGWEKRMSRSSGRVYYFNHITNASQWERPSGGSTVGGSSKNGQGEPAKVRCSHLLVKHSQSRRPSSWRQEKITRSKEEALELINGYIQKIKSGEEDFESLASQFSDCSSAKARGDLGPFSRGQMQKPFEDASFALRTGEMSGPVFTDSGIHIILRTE

This assay concerns the target GST-Pin1 (UniProt Q9QUR7). Kind of assay: pull-down; GST-Pin1 held on Glutathione Sepharose 4B beads; p38 phosphopeptide T180(p) added and incubated overnight at 4 °C; washed three times with PBS, eluted with reduced glutathione (50 mM Tris pH 8.0); eluate spotted on PVDF or NC membrane and read by dot blot with a primary antibody; both purified.

Results are given in words; binding and its absence hold for the method and conditions named.

As to TDDEMTGYVATRW (phosphothreonine at 180 (T180(p))) [p38 phosphopeptide (TDDEMT(p)GYVATRW), phosphorylated at threonine 180], the binding result is on record as “no binding”.
